In the supplement of paper PMC3334620:
In all, about 33,000 sequences were measured (“E-score (-0.5 to 0.5)”: median about -0.0014, highest 2% from about 0.25 on). The list shows a part of the results.

Target: T1, Cad1 (UniProt P24813)
T1 sequence: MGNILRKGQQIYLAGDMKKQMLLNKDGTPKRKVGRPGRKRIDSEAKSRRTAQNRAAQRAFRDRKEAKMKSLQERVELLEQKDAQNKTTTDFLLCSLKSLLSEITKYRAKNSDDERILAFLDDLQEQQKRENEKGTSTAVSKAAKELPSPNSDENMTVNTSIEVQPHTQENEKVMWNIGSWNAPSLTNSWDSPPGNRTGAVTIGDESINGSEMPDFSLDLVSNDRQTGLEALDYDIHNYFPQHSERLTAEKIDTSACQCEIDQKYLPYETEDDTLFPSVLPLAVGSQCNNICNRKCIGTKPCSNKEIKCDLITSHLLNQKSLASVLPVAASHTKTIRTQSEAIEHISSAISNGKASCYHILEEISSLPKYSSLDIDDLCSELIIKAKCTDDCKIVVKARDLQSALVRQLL
Assay: PBM E-score (8-mer binding enrichment) (E-score (-0.5 to 0.5)); higher = stronger / more preferred TF binding
Conditions: protein concentration: 100 nM; construct: GST-full length
Description: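 Universal 'all 10-mer' protein binding microarrays (Agilent AMADID 015681) probed with GST-tagged S. cerevisiae TFs (full-length or DBD) made by in vitro transcription/translation (PURExpress), about 100-200 nM. Bound TF was detected with fluorescent anti-GST. Each ungapped 8-mer (which stands for itself and its reverse complement) is scored by the PBM enrichment score (E-score), a modified Wilcoxon-Mann-Whitney statistic from -0.5 to +0.5, computed with the Universal PBM Analysis Suite. Scale: above 0.35 generally sequence-specific binding.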

Row | Sequence | PBM E-score
1 | CGCACCAA | 0.0184
2 | ACGAATTC | 0.115
3 | ACCGTACC | -0.125
4 | GTACCGAA | 0.00935
5 | AGCTGGGG | -0.178
6 | CAGCCCCC | -0.313
7 | CTGGGAGA | -0.0838
8 | ATATGGAG | 0.157
9 | GATCCCGA | 0.0683
10 | CCCCCGGC | -0.372
11 | CACGGCTG | -0.184
12 | GTCCATCA | -0.0278
13 | GTAAGGCA | -0.0345
14 | AGGTCCCG | -0.0309
15 | ACCCCCTC | -0.442
16 | CCATGGTC | -0.152
17 | GACAACTC | 0.0803
18 | ATGGCGAA | 0.179
19 | ATGCAGAG | -0.0748
20 | GGCTGAGA | 0.00306
21 | AAAAACAA | 0.181
22 | CGTCCTCA | -0.116
23 | CTAAGAAA | 0.0882
24 | ACTACCCT | -0.163
25 | ACCCTTAA | -0.218

Row | Sequence | PBM E-score
26 | AGCTGCAC | -0.0122
27 | GACTCCAC | -0.332
28 | ACTCTTTG | -0.207
29 | CCAACCAC | 0.189
30 | AACTCACA | 0.115
31 | TCGGGCCA | -0.0388
32 | ACAGGGGT | -0.276
33 | AGCAGCAA | -0.0226
34 | GGGCGGGA | 0.0845
35 | AGCGTTTG | -0.069
36 | CGGAGTGC | 0.109
37 | CCGTCCAA | -0.0376
38 | ACCAACAC | 0.136
39 | GCAGGCAC | -0.264
40 | ACGACCGT | -0.266
41 | CGAGTACA | -0.0347
42 | AGGATCGC | 0.0539
43 | GCTGTCCC | -0.129
44 | CGCCCCAA | 0.0555
45 | CGTTTCTC | -0.229
46 | AGCGTGCC | -0.091
47 | ACTGGCTA | -0.114
48 | CTCAGTAC | -0.0509
49 | GAGTTCCA | -0.0572
50 | CAACAAGA | -0.0155

Row | Sequence | PBM E-score
51 | AGGACCAA | -0.143
52 | AACTCCAA | -0.0328
53 | CCACCTAC | -0.198
54 | CATAAAAG | -0.0296
55 | ACATCGAA | 0.169
56 | AGATAGGA | -0.0626
57 | AGGAGTAG | -0.112
58 | ACTTACAT | 0.0914
59 | AGAAACAC | 0.132
60 | CCCGCTAC | 0.117
61 | CCTCTGTC | -0.0423
62 | CACGTAAA | -0.106
63 | AAAAGGAT | 0.0254
64 | GACGTCAC | 0.00126
65 | ACCATAAC | 0.04
66 | GAGGCGAC | -0.14
67 | AGCAACTA | 0.0746
68 | CCTTAGTC | 0.0508
69 | CAAAGTTA | 0.118
70 | ATCTTAAT | 0.0449
71 | CTGGTTAC | -0.119
72 | TCGGCCCA | -0.0821
73 | ATTTGGGG | 0.00808
74 | CAAGCGAA | -0.0753
75 | GGCTCGGA | -0.155

Row | Sequence | PBM E-score
76 | TCGTTACA | 0.0786
77 | GGTAGGGA | -0.096
78 | AAGGCCGG | -0.111
79 | GCTTAGAA | 0.19
80 | CTGTAGCA | -0.141
81 | AATCCATC | 0.0347
82 | CAGGTTGA | -0.255
83 | CCTCCATC | -0.237
84 | CACATAGG | -0.0806
85 | AAAATAAG | 0.208
86 | ATTGCTTC | -0.0332
87 | AAAACAAC | -0.13
88 | ATCGCGGC | 0.178
89 | CCATGCAG | -0.0439
90 | AGGGCAAC | 0.0979
91 | ACATTTCT | 0.142
92 | CACTCAAG | -0.114
93 | AACCGGCA | -0.00567
94 | CGAACGCA | 0.236
95 | GCGCCTCA | -0.0183
96 | ATTTCCAG | 0.145
97 | CCCATATC | 0.0133
98 | CCCTTAAA | -0.182
99 | CGCAACAA | 0.0963
100 | GCTTCTAA | -0.0938

Row | Sequence | PBM E-score
101 | AGGTCCTC | -0.194
102 | AGCGTGAA | -0.0191
103 | TAGGCAGA | -0.0397
104 | GCTGGGCA | 0.0663
105 | GAGTGATC | 0.0266
106 | ATTTACGA | 0.113
107 | ATCTGACC | 0.0388
108 | AAGACCGC | -0.124
109 | CATCATCG | 0.0611
110 | CCACCTAG | -0.27
111 | ACCAACTA | 0.154
112 | TCCGGAGA | -0.0135
113 | TTACACAA | 0.247
114 | TCGCTGCA | -0.0819
115 | CTGGATTA | 0.212
116 | ATACTCGA | -0.0898
117 | CGCGCGCG | 0.214
118 | CTGTAGAC | -0.0298
119 | ATGACTTA | 0.18
120 | AACGTAGC | -0.053
121 | GCTGCTCC | -0.193
122 | CACGGAAG | -0.00842
123 | GAGCGCGA | 0.236
124 | ACATGGGC | 0.0187
125 | ACCCTTCT | -0.0996

Row | Sequence | PBM E-score
126 | TCCGCTAA | 0.058
127 | CGCCGTCA | -0.0993
128 | CGCTGTAC | 0.0343
129 | CGTATGGC | 0.14
130 | GTCTTGGA | -0.123
131 | CCGCGCCC | -0.183
132 | AAGAGTAC | -0.0506
133 | GGCCCGGA | -0.328
134 | AATAGAGC | 0.0624
135 | TCTCAAGA | -0.0659
136 | CAAAATCA | 0.0621
137 | CGAGGTCA | 0.0515
138 | GCTCCCGA | -0.124
139 | TAAATCTA | 0.114
140 | AGGGAAGG | -0.335
141 | AGCTGCGC | 0.0681
142 | CCATTCTC | -0.114
143 | ACTTGCGC | 0.0495
144 | CGGTGTAG | -0.00445
145 | ATAGTACA | 0.0832
146 | AACGCAAT | 0.139
147 | AAGCATCA | -0.0135
148 | ACCACTTC | -0.138
149 | GATGGTGC | -0.244
150 | AGGTGCTA | -0.0384

For reference, some entries already given.
Row | Sequence | PBM E-score
12 | GTCCATCA | -0.0278
13 | GTAAGGCA | -0.0345
14 | AGGTCCCG | -0.0309
15 | ACCCCCTC | -0.442

Remaining list, next part

Row | Sequence | PBM E-score
151 | ATGAACTA | 0.0699
152 | ACGTCTTC | 0.00728
153 | ACCTATGC | -0.0824
154 | CGCGTTAG | 0.124
155 | ATACGTGA | 0.072
156 | CCCAGCCA | -0.12
157 | CCTCGGTA | -0.118
158 | ATGTCTAG | 0.109
159 | CGGCATAG | -0.0547
160 | TATTTTAA | 0.107
161 | CCCATCAG | -0.191
162 | CCCGACAG | -0.161
163 | ATTACGAA | 0.327
164 | ACCCCAGC | -0.00095
165 | ACGCAAAC | 0.143
166 | ATATGAAT | 0.12
167 | AGGCCGGC | -0.166
168 | CCCGTTAG | -0.187
169 | TCTTAGCA | -0.0984
170 | AGTAAGTG | 0.044
171 | AGTGACCA | -0.0676
172 | GGCGCGAA | 0.0675
173 | GTGAACAC | 0.0122
174 | ATATATTA | 0.368
175 | CGCGCGAC | 0.18

Row | Sequence | PBM E-score
176 | AAAGGGGA | -0.325
177 | TCCGAACA | 0.144
178 | ACACTGTG | 0.134
179 | ACACGCAC | -0.0647
180 | ATCCGCCC | -0.199
181 | GACACACA | 0.134
182 | ACGCCACG | 0.0104
183 | CCGCCAGA | 0.0805
184 | CAGAAGGG | -0.208
185 | CGTACCAC | 0.0587
186 | GCTACCCC | -0.35
187 | ACGGTCAC | -0.0969
188 | AACACCTA | -0.0404
189 | CACGCAAC | 0.169
190 | CCCATGCC | -0.264
191 | CAGCAGCC | -0.043
192 | CGATACTC | 0.0376
193 | CCGTGAGG | -0.186
194 | AGACGTAC | -0.0325
195 | AACCTCTC | -0.202
196 | AACGGCCG | 0.153
197 | CCCAGGCA | -0.193
198 | GTAACTTA | 0.17
199 | GGTTTCAC | 0.00803
200 | GGCTGGGA | -0.0727

Row | Sequence | PBM E-score
201 | CATCCCGA | 0.0198
202 | GCCTCTCA | -0.147
203 | GTATAAAA | 0.18
204 | ACACCTAT | -0.0643
205 | TGTTAGAA | 0.065
206 | CTGTTGGC | -0.202
207 | AGTTCTAT | 0.0729
208 | ATGCGGAG | -0.193
209 | ACAACATG | 0.0955
210 | ACGAGTGA | -0.106
211 | TCGTTAGA | 0.0445
212 | GTTCTCTA | 0.0943
213 | CGCTTAGA | -0.0306
214 | GAAGGTGC | -0.131
215 | CATGCCAG | -0.0523
216 | ACGATGTC | -0.0104
217 | AGCGTTAT | 0.0656
218 | CCAAGATA | 0.0014
219 | AACTGGCC | -0.00047

Copied from the list:
Entry of ATGCGGAG under PBM E-score: -0.193
Entry of CTGTTGGC under PBM E-score: -0.202
Entry of AACTGGCC under PBM E-score: -0.00047
